Laboratory results published in the supplement of paper PMC12823440, “Inhibitors supercharge kinase turnover through native proteolytic circuits” (Nature, 2025).
Counter-ions that a name gives are not always drawn. The list shows a part of the results. The calls rarely recur for the same compound in another form.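 Kinases were expressed as nanoluciferase fusions in K562 cells and luminescence was read every 4 h between 2 and 18 h as percent of control, DMSO set to 100% and a positive control to 0%. A time point counts as decreased when the signal drops significantly (2 sigma). The hit call is the authors' own, does not follow from the count of time points alone, and its rule is not shown.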

Chains of the proteins cited; added tags and fusions are not shown. Lines headed by an entry give the natural chain unless they say otherwise; changes in a name come on top.
UniProt P21860, whole entry: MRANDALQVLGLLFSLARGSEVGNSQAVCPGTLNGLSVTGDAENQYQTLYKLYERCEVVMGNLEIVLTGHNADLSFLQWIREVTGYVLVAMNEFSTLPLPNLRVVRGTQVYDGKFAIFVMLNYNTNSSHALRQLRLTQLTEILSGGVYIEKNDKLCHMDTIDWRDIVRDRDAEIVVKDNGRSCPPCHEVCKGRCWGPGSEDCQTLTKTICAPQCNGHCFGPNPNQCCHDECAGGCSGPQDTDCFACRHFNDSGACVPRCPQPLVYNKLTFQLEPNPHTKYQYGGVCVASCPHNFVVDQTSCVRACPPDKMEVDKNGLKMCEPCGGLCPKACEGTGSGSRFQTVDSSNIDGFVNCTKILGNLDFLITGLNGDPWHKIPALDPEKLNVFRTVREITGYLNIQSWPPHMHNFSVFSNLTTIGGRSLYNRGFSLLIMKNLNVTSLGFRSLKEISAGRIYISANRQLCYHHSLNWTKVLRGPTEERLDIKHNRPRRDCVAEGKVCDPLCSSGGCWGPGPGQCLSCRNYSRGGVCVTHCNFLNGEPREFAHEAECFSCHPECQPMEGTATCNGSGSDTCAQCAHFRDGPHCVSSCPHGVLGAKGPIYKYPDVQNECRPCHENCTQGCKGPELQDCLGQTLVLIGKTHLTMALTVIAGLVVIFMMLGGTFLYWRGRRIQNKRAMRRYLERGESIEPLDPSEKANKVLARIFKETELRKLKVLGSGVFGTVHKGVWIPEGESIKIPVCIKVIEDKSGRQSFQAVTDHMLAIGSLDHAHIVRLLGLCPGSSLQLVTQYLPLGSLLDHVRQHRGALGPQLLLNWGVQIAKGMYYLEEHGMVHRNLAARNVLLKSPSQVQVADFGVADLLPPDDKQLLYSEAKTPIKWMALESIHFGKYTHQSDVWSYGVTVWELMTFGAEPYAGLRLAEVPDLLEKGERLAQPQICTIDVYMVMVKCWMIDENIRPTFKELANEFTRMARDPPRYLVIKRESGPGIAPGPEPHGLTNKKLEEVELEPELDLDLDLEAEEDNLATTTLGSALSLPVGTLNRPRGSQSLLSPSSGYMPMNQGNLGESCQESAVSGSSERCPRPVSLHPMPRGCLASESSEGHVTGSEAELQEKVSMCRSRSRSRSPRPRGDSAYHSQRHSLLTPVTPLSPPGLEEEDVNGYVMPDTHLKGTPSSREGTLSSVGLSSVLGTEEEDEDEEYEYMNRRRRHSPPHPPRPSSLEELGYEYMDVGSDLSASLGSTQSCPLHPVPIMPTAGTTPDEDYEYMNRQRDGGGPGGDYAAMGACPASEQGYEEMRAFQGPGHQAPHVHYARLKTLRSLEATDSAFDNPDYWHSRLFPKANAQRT
UniProt Q15303, whole entry R711C: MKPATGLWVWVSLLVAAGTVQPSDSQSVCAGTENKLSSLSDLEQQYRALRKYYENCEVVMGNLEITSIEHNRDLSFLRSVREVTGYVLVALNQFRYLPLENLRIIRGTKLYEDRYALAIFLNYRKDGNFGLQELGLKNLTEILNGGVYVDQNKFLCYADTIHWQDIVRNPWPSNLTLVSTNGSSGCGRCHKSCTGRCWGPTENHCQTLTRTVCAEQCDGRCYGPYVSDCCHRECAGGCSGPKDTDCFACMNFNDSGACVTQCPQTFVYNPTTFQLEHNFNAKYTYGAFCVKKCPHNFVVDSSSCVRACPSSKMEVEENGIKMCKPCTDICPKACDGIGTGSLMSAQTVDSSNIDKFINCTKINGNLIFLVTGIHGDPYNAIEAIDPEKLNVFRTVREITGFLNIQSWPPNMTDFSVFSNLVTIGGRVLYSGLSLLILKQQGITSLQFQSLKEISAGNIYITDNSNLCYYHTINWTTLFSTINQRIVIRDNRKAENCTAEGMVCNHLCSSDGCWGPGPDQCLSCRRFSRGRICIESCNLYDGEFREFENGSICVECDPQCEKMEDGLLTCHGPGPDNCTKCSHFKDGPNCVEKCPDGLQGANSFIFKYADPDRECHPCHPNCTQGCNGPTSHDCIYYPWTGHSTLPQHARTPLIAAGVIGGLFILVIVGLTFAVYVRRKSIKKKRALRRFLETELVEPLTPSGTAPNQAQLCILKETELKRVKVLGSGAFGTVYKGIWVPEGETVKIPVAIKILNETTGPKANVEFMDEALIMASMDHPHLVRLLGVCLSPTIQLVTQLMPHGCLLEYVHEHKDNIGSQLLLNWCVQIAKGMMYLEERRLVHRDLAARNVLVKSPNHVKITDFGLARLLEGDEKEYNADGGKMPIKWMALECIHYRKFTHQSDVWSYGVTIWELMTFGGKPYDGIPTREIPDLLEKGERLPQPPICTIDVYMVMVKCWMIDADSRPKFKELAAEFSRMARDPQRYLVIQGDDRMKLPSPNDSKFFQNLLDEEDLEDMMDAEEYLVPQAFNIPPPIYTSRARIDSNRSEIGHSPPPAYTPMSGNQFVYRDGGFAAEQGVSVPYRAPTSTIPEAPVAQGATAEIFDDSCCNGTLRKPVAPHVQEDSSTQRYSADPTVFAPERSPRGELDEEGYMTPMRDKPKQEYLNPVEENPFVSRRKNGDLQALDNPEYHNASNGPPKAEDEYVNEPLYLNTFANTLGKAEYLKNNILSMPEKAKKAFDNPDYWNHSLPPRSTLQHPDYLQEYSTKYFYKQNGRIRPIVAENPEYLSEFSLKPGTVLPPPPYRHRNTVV
UniProt P21802, whole entry, looked up: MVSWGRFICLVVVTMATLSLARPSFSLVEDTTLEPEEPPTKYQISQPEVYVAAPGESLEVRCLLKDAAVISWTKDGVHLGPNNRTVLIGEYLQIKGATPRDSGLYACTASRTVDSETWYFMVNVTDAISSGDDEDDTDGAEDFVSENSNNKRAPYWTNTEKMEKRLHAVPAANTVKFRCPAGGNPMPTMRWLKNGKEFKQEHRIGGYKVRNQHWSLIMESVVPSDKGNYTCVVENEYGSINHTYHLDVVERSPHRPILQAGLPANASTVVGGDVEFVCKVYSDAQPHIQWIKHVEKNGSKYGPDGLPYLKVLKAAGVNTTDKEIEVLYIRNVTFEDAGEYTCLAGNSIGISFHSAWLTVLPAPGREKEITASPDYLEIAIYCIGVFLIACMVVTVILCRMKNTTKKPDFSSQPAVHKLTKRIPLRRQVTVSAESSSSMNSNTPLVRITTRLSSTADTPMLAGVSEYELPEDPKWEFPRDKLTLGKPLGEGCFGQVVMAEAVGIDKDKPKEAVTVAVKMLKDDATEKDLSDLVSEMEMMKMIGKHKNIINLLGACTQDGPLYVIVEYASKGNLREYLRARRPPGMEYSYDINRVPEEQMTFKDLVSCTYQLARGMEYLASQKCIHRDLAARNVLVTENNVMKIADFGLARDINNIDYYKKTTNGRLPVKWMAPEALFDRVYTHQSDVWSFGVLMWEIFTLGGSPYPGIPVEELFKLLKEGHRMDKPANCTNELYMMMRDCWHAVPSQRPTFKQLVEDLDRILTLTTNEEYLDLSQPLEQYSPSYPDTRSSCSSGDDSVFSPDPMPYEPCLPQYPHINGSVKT
UniProt P36888, whole entry: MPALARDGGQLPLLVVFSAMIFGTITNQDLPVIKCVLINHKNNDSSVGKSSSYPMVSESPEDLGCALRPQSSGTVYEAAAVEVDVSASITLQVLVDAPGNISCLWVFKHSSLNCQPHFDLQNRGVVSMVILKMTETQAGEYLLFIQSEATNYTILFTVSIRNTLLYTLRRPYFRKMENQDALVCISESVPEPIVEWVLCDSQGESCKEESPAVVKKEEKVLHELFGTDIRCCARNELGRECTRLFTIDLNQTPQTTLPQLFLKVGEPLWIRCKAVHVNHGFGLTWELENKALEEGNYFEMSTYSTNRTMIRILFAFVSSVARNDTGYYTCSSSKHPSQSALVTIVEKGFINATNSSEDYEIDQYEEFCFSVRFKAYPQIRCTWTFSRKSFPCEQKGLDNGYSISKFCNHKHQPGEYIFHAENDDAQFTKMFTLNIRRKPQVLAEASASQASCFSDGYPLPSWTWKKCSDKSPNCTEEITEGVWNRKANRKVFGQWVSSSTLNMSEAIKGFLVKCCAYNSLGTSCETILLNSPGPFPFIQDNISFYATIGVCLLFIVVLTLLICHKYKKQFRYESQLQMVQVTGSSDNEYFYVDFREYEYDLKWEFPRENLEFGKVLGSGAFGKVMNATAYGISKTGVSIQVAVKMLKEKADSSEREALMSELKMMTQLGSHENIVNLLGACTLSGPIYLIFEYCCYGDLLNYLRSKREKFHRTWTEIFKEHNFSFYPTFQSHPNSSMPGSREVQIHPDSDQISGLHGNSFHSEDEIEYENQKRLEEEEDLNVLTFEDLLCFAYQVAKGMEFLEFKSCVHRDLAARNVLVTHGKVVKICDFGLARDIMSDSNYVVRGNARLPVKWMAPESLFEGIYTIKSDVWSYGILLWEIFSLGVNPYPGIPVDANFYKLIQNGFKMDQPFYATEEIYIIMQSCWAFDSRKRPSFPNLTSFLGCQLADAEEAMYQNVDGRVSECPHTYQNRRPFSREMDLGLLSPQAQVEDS
UniProt P49840: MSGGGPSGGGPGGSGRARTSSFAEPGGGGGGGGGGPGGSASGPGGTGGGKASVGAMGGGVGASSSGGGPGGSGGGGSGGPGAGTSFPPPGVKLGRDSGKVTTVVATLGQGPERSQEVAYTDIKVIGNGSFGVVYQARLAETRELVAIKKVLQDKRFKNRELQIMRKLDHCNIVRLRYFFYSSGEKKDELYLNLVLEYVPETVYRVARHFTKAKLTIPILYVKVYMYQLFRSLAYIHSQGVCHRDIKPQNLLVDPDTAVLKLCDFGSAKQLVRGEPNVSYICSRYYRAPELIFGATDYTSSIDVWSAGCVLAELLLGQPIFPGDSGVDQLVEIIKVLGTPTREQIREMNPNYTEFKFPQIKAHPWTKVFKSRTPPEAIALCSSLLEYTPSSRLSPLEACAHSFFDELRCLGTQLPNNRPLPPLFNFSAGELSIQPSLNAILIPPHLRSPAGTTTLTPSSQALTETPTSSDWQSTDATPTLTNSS
UniProt P14616: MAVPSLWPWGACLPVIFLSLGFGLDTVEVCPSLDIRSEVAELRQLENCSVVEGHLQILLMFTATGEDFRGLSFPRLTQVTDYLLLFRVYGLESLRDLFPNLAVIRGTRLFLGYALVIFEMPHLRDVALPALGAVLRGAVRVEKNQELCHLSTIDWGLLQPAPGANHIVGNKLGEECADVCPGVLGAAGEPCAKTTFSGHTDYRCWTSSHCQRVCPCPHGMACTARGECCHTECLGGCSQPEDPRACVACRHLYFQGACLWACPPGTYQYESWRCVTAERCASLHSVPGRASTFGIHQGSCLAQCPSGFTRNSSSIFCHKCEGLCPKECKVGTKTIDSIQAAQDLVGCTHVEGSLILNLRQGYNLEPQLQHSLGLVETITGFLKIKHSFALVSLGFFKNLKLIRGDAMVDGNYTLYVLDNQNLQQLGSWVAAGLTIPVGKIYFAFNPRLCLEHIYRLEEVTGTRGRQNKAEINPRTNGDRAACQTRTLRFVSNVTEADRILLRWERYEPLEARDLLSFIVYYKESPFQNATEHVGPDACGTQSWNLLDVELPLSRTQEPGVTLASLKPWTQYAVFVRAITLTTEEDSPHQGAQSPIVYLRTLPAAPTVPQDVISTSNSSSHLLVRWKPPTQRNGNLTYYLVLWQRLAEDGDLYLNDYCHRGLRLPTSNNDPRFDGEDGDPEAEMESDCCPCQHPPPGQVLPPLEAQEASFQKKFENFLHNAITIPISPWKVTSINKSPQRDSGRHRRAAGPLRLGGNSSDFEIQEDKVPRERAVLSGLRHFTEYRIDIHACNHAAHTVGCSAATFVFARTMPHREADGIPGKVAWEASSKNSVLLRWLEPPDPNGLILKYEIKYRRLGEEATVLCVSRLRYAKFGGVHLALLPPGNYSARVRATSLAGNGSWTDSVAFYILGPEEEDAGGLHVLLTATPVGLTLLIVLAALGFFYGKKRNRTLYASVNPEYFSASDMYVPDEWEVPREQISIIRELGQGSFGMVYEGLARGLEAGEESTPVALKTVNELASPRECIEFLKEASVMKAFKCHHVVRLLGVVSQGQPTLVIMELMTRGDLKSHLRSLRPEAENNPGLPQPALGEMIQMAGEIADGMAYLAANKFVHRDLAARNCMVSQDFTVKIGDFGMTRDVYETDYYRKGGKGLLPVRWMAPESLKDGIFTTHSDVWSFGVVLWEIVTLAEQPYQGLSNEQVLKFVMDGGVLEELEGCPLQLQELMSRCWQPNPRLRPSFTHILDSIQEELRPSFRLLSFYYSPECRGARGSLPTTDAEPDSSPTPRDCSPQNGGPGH

What was measured:
Experiment in all cases: kinase-Nluc reporter destabilization hit call (1 = scored as downregulated) (binary); higher = compound decreases kinase abundance
Conditions in all cases: K562; 2-18 h
[1] = target: EGFR (UniProt P00533)
[2] = target: EGFR_G719S (UniProt P00533)
[3] = target: EGFR_G719S_T790M (UniProt P00533)
[4] = target: EGFR_L718V (UniProt P00533)
[5] = target: EGFR_L858R (UniProt P00533)
[6] = target: EGFR_L861Q (UniProt P00533)
[7] = target: EGFR_T790M (UniProt P00533)
[8] = target: EPHA2 (UniProt P29317)
[9] = target: ERBB3 (UniProt P21860)
[10] = target: ERBB4_R711C (clone: ERBB4_mut) (UniProt Q15303)
[11] = target: ERN1 (UniProt O75460)
[12] = target: FGFR1 (UniProt P11362)
[13] = target: FGFR2 (UniProt P21802)
[14] = target: FGFR3 (UniProt P22607)
[15] = target: FGR (UniProt P09769)
[16] = target: FLT3 (UniProt P36888)
[17] = target: FYN (UniProt P06241)
[18] = target: GSK3A (UniProt P49840)
[19] = target: HER2 (UniProt P04626)
[20] = target: INSRR (UniProt P14616)

SMILES | kinase-Nluc reporter destabilization hit call [1] | kinase-Nluc reporter destabilization hit call [2] | kinase-Nluc reporter destabilization hit call [3] | kinase-Nluc reporter destabilization hit call [4] | kinase-Nluc reporter destabilization hit call [5] | kinase-Nluc reporter destabilization hit call [6] | kinase-Nluc reporter destabilization hit call [7] | kinase-Nluc reporter destabilization hit call [8] | kinase-Nluc reporter destabilization hit call [9] | kinase-Nluc reporter destabilization hit call [10] | kinase-Nluc reporter destabilization hit call [11] | kinase-Nluc reporter destabilization hit call [12] | kinase-Nluc reporter destabilization hit call [13] | kinase-Nluc reporter destabilization hit call [14] | kinase-Nluc reporter destabilization hit call [15] | kinase-Nluc reporter destabilization hit call [16] | kinase-Nluc reporter destabilization hit call [17] | kinase-Nluc reporter destabilization hit call [18] | kinase-Nluc reporter destabilization hit call [19] | kinase-Nluc reporter destabilization hit call [20]
N[C@H](Cc1c[nH]c2ccccc12)C(=O)N/N=C/c1ccc2nccnc2c1 [Rhosin (hydrochloride)] (10 µM) | inactive: 0 | inactive: 0 | inactive: 0 | inactive: 0 | inactive: 0 | inactive: 0 | inactive: 0 | inactive: 0 | inactive: 0 | inactive: 0 | inactive: 0 | inactive: 0 | inactive: 0 | inactive: 0 | inactive: 0 | inactive: 0 | inactive: 0 | inactive: 0 | inactive: 0 | inactive: 0
O=[N+]([O-])c1cc(C(F)(F)F)cc([N+](=O)[O-])c1NNC(=S)Nc1ccc(F)cc1 (10 µM) | inactive: 0 | inactive: 0 | inactive: 0 | inactive: 0 | inactive: 0 | inactive: 0 | inactive: 0 | inactive: 0 | inactive: 0 | inactive: 0 | inactive: 0 | inactive: 0 | inactive: 0 | inactive: 0 | inactive: 0 | inactive: 0 | inactive: 0 | inactive: 0 | inactive: 0 | inactive: 0
CC(C)CN[C@H]1CS(=O)(=O)C[C@@H]1S(=O)(=O)c1ccc(Cl)cc1 (10 µM) | inactive: 0 | inactive: 0 | inactive: 0 | inactive: 0 | inactive: 0 | inactive: 0 | inactive: 0 | inactive: 0 | inactive: 0 | inactive: 0 | inactive: 0 | inactive: 0 | inactive: 0 | inactive: 0 | inactive: 0 | inactive: 0 | inactive: 0 | inactive: 0 | inactive: 0 | inactive: 0
Cc1c(CN2CCN(C(=O)[C@H](C)O)CC2)sc2c(N3CCOCC3)nc(-c3cnc(N)nc3)nc12 [Apitolisib] (10 µM) | inactive: 0 | inactive: 0 | inactive: 0 | inactive: 0 | inactive: 0 | inactive: 0 | inactive: 0 | inactive: 0 | inactive: 0 | inactive: 0 | inactive: 0 | inactive: 0 | inactive: 0 | inactive: 0 | inactive: 0 | inactive: 0 | inactive: 0 | inactive: 0 | inactive: 0 | inactive: 0
CCOc1cc(C(=O)N2CCC(N3CCN(C)CC3)CC2)ccc1Nc1ncc2c(n1)N(C1CCCC1)c1ccccc1C(=O)N2C (10 µM) | inactive: 0 | inactive: 0 | inactive: 0 | inactive: 0 | inactive: 0 | inactive: 0 | inactive: 0 | inactive: 0 | inactive: 0 | inactive: 0 | inactive: 0 | inactive: 0 | inactive: 0 | inactive: 0 | inactive: 0 | inactive: 0 | inactive: 0 | inactive: 0 | inactive: 0 | inactive: 0
CC(=NNC(=O)c1ccc(C)c(Br)c1)c1ccc(O)cc1O [mTOR inhibitor-1] (2.5 µM) | inactive: 0 | inactive: 0 | inactive: 0 | inactive: 0 | inactive: 0 | inactive: 0 | inactive: 0 | inactive: 0 | inactive: 0 | inactive: 0 | inactive: 0 | inactive: 0 | inactive: 0 | inactive: 0 | inactive: 0 | inactive: 0 | inactive: 0 | inactive: 0 | inactive: 0 | inactive: 0
CC1CCc2nc(N)c(C#N)c(-c3cccnc3)c2C1 (stereo not given) (10 µM) | inactive: 0 | inactive: 0 | inactive: 0 | inactive: 0 | inactive: 0 | inactive: 0 | inactive: 0 | inactive: 0 | inactive: 0 | inactive: 0 | inactive: 0 | inactive: 0 | inactive: 0 | inactive: 0 | inactive: 0 | inactive: 0 | inactive: 0 | inactive: 0 | inactive: 0 | inactive: 0
CCn1c(=O)c(-c2ccc(-c3cncc(C)n3)cc2Cl)cc2cnc(NCCC3CCN(C)CC3)nc21 (10 µM) | inactive: 0 | inactive: 0 | inactive: 0 | inactive: 0 | inactive: 0 | inactive: 0 | inactive: 0 | inactive: 0 | inactive: 0 | inactive: 0 | inactive: 0 | inactive: 0 | inactive: 0 | inactive: 0 | inactive: 0 | inactive: 0 | inactive: 0 | inactive: 0 | inactive: 0 | inactive: 0
Nc1cc(Nc2ccc(S(N)(=O)=O)cc2)ncn1 (10 µM) | inactive: 0 | inactive: 0 | inactive: 0 | inactive: 0 | inactive: 0 | inactive: 0 | inactive: 0 | inactive: 0 | inactive: 0 | inactive: 0 | inactive: 0 | inactive: 0 | inactive: 0 | inactive: 0 | inactive: 0 | inactive: 0 | inactive: 0 | inactive: 0 | inactive: 0 | inactive: 0
O=C(Nc1cccnc1)c1cc(C(=O)c2c(F)cccc2Br)c[nH]1 (10 µM) | inactive: 0 | inactive: 0 | inactive: 0 | inactive: 0 | inactive: 0 | inactive: 0 | inactive: 0 | inactive: 0 | inactive: 0 | inactive: 0 | inactive: 0 | inactive: 0 | inactive: 0 | inactive: 0 | inactive: 0 | inactive: 0 | inactive: 0 | inactive: 0 | inactive: 0 | inactive: 0
Cc1ccc(-c2c(C(=O)CCl)n(CCCO)c3ncnc(N)c23)cc1 (10 µM) | inactive: 0 | inactive: 0 | inactive: 0 | inactive: 0 | inactive: 0 | inactive: 0 | inactive: 0 | inactive: 0 | inactive: 0 | inactive: 0 | inactive: 0 | inactive: 0 | inactive: 0 | inactive: 0 | inactive: 0 | inactive: 0 | active: 1 | inactive: 0 | inactive: 0 | inactive: 0
COc1ccc2[nH]cc(/C=C3\C(=O)Nc4ccc(NC(=O)CCN5CCCCC5)cc43)c2c1 (2.5 µM) | inactive: 0 | inactive: 0 | inactive: 0 | inactive: 0 | inactive: 0 | inactive: 0 | inactive: 0 | inactive: 0 | inactive: 0 | inactive: 0 | inactive: 0 | inactive: 0 | inactive: 0 | inactive: 0 | inactive: 0 | inactive: 0 | inactive: 0 | inactive: 0 | inactive: 0 | inactive: 0
O=C(/C=C/c1ccc(O)c(O)c1)c1ccc(O[C@@H]2O[C@H](CO)[C@@H](O)[C@H](O)[C@H]2O)c(O)c1O [Marein] (10 µM) | inactive: 0 | inactive: 0 | inactive: 0 | inactive: 0 | inactive: 0 | inactive: 0 | inactive: 0 | inactive: 0 | inactive: 0 | inactive: 0 | inactive: 0 | inactive: 0 | inactive: 0 | inactive: 0 | inactive: 0 | inactive: 0 | inactive: 0 | inactive: 0 | inactive: 0 | inactive: 0
C=CC(=O)Nc1ccc(CN(C(=O)Nc2c(Cl)c(OC)cc(OC)c2Cl)c2cc(Nc3ccc(N4CCN(C)CC4)cc3)ncn2)cc1 (10 µM) | inactive: 0 | inactive: 0 | inactive: 0 | inactive: 0 | inactive: 0 | inactive: 0 | inactive: 0 | inactive: 0 | inactive: 0 | inactive: 0 | inactive: 0 | inactive: 0 | inactive: 0 | inactive: 0 | inactive: 0 | inactive: 0 | inactive: 0 | inactive: 0 | inactive: 0 | inactive: 0
O=C1NC(=O)C(=Cc2ccc(-c3ccc(F)cc3)o2)S1 (stereo in doubt) (10 µM) | inactive: 0 | inactive: 0 | inactive: 0 | inactive: 0 | inactive: 0 | inactive: 0 | inactive: 0 | inactive: 0 | inactive: 0 | inactive: 0 | inactive: 0 | inactive: 0 | inactive: 0 | inactive: 0 | inactive: 0 | inactive: 0 | inactive: 0 | inactive: 0 | inactive: 0 | inactive: 0
Cc1noc(C)c1-c1ccc(-c2cc(C(N)=O)c(NC(N)=O)s2)c(O[C@H]2CCNC2)c1 (10 µM) | inactive: 0 | inactive: 0 | inactive: 0 | inactive: 0 | inactive: 0 | inactive: 0 | inactive: 0 | inactive: 0 | inactive: 0 | inactive: 0 | inactive: 0 | inactive: 0 | inactive: 0 | inactive: 0 | inactive: 0 | inactive: 0 | inactive: 0 | inactive: 0 | inactive: 0 | inactive: 0
Nc1ncnc2c1ncn2[C@@H]1O[C@H](CO)C[C@H]1O [Cordycepin] (10 µM) | inactive: 0 | inactive: 0 | inactive: 0 | inactive: 0 | inactive: 0 | inactive: 0 | inactive: 0 | inactive: 0 | inactive: 0 | inactive: 0 | inactive: 0 | inactive: 0 | inactive: 0 | inactive: 0 | inactive: 0 | inactive: 0 | inactive: 0 | inactive: 0 | inactive: 0 | inactive: 0
C[C@@H]1O[C@@H](O[C@H]2[C@H](Oc3cc(O)c4c(=O)cc(-c5ccc(O)cc5)oc4c3)O[C@H](CO)[C@@H](O)[C@@H]2O)[C@H](O)[C@H](O)[C@H]1O [Rhoifolin] (10 µM) | inactive: 0 | inactive: 0 | inactive: 0 | inactive: 0 | inactive: 0 | inactive: 0 | inactive: 0 | inactive: 0 | inactive: 0 | inactive: 0 | inactive: 0 | inactive: 0 | inactive: 0 | inactive: 0 | inactive: 0 | inactive: 0 | inactive: 0 | inactive: 0 | inactive: 0 | inactive: 0

Quoted from the entries so far, 2 compounds:
SMILES | kinase-Nluc reporter destabilization hit call [1] | kinase-Nluc reporter destabilization hit call [2] | kinase-Nluc reporter destabilization hit call [3] | kinase-Nluc reporter destabilization hit call [4] | kinase-Nluc reporter destabilization hit call [5] | kinase-Nluc reporter destabilization hit call [6] | kinase-Nluc reporter destabilization hit call [7] | kinase-Nluc reporter destabilization hit call [8] | kinase-Nluc reporter destabilization hit call [9] | kinase-Nluc reporter destabilization hit call [10] | kinase-Nluc reporter destabilization hit call [11] | kinase-Nluc reporter destabilization hit call [12] | kinase-Nluc reporter destabilization hit call [13] | kinase-Nluc reporter destabilization hit call [14] | kinase-Nluc reporter destabilization hit call [15] | kinase-Nluc reporter destabilization hit call [16] | kinase-Nluc reporter destabilization hit call [17] | kinase-Nluc reporter destabilization hit call [18] | kinase-Nluc reporter destabilization hit call [19] | kinase-Nluc reporter destabilization hit call [20]
CC(=NNC(=O)c1ccc(C)c(Br)c1)c1ccc(O)cc1O [mTOR inhibitor-1] (2.5 µM) | inactive: 0 | inactive: 0 | inactive: 0 | inactive: 0 | inactive: 0 | inactive: 0 | inactive: 0 | inactive: 0 | inactive: 0 | inactive: 0 | inactive: 0 | inactive: 0 | inactive: 0 | inactive: 0 | inactive: 0 | inactive: 0 | inactive: 0 | inactive: 0 | inactive: 0 | inactive: 0
CC1CCc2nc(N)c(C#N)c(-c3cccnc3)c2C1 (stereo not given) (10 µM) | inactive: 0 | inactive: 0 | inactive: 0 | inactive: 0 | inactive: 0 | inactive: 0 | inactive: 0 | inactive: 0 | inactive: 0 | inactive: 0 | inactive: 0 | inactive: 0 | inactive: 0 | inactive: 0 | inactive: 0 | inactive: 0 | inactive: 0 | inactive: 0 | inactive: 0 | inactive: 0
